Source: PubChem BioAssay (NCATS)
The inconclusive results got no clear call from the source; some entries with a clear call stand among them for comparison. For part of these data: Potencies beside an inconclusive call are fits to weak or partial responses and may not hold up. Calls of active or inactive are those of the source. Unless noted, calls come from the whole dose curve; as a rule, active = well fitted curve in the direction sought with a large enough effect; inconclusive = small, poorly fitted or top-dose-only effect, or another doubt; inactive = no such curve, though single readings can be large; an effect the other way counts as inactive or inconclusive.

Chains of the proteins cited; added tags and fusions are not shown. Lines headed by an entry give the natural chain unless they say otherwise; changes in a name come on top.
UniProt O75604: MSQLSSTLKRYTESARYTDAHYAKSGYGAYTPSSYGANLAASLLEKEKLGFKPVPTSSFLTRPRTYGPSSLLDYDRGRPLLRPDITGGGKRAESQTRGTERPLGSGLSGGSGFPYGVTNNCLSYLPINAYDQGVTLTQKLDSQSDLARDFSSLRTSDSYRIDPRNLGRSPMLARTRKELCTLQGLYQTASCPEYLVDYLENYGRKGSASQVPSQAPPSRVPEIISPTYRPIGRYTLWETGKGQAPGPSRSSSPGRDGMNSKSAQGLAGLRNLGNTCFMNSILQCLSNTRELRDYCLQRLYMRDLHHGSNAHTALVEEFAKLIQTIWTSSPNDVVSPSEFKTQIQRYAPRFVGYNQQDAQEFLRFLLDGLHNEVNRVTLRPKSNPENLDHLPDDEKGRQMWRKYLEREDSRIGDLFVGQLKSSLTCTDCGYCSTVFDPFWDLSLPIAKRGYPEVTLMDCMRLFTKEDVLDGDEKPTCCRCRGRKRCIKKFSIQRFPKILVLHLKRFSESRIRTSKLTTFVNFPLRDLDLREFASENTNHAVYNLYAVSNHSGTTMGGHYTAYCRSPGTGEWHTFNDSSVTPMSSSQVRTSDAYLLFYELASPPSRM
UniProt C7C422: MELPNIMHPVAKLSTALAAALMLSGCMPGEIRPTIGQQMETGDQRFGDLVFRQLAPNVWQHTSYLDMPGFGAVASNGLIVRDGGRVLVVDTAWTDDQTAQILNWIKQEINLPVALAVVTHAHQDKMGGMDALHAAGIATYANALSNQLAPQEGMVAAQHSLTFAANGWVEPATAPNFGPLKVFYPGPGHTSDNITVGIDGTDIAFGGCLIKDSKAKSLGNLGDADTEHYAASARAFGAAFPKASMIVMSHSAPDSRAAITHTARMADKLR
UniProt O95398: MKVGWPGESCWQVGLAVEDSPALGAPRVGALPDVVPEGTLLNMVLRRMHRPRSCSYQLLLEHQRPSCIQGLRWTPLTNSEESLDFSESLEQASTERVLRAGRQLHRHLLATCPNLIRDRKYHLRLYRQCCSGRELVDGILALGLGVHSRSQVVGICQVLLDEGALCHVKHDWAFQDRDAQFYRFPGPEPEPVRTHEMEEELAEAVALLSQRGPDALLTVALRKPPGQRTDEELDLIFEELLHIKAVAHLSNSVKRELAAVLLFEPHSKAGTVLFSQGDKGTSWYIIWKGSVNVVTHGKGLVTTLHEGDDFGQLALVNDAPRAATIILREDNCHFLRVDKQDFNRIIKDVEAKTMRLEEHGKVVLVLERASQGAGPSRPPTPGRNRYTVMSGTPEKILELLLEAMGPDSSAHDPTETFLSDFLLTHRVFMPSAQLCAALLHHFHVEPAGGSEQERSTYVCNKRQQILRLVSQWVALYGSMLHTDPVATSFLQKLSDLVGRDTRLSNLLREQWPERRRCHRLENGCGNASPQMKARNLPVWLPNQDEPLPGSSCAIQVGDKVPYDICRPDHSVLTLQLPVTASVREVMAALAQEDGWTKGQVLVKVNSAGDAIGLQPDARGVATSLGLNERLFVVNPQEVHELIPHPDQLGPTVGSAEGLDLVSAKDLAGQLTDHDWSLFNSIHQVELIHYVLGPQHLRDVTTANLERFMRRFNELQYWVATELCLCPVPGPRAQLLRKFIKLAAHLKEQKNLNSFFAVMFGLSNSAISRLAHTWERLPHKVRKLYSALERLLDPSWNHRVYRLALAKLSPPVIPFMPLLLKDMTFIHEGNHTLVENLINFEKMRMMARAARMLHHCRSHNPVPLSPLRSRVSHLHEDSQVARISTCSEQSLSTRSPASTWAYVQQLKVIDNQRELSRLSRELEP
UniProt Q27686: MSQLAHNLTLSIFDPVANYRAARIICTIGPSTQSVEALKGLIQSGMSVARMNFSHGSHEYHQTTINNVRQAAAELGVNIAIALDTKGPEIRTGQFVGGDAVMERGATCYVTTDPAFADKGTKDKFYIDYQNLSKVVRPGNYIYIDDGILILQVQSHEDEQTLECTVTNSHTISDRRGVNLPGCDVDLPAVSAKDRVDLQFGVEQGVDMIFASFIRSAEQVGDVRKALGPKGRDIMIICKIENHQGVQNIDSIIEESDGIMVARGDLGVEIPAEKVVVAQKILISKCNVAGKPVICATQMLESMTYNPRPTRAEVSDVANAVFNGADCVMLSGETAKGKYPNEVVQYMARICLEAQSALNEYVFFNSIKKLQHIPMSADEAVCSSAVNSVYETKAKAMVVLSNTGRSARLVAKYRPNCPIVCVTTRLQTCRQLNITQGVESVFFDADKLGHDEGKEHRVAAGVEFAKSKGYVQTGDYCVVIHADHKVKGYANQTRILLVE
UniProt P08684, whole entry, looked up: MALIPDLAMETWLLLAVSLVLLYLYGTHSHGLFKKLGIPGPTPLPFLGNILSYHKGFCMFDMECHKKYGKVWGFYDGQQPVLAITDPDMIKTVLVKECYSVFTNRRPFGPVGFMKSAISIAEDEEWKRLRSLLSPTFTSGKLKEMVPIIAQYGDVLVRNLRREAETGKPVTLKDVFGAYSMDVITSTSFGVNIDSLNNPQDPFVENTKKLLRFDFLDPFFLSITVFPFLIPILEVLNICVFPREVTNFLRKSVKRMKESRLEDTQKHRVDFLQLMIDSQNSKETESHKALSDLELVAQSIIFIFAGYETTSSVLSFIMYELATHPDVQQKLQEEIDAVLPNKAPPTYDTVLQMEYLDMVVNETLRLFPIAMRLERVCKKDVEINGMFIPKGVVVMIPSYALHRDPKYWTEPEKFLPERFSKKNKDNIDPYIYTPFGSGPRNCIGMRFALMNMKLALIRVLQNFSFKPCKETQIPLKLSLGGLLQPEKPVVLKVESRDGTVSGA
UniProt Q9GZX7: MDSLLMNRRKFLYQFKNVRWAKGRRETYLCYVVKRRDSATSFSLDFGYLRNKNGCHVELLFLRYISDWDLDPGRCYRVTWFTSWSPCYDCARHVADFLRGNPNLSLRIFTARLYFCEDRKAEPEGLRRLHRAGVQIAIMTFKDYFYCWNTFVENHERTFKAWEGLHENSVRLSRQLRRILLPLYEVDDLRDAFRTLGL
UniProt P11712, whole entry, looked up: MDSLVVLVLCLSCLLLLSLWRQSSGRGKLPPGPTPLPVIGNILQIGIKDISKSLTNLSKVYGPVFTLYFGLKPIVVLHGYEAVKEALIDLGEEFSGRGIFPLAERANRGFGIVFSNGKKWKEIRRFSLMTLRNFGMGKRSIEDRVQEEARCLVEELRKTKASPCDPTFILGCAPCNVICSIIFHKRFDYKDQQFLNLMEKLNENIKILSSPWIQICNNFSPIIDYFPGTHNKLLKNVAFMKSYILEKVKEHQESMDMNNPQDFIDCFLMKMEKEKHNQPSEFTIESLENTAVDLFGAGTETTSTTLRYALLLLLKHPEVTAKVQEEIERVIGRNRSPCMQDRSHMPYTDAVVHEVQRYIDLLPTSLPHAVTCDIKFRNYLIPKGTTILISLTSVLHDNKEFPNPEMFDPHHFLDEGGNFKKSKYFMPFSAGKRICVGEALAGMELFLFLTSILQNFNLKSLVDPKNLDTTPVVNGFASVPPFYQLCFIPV
UniProt Q12809: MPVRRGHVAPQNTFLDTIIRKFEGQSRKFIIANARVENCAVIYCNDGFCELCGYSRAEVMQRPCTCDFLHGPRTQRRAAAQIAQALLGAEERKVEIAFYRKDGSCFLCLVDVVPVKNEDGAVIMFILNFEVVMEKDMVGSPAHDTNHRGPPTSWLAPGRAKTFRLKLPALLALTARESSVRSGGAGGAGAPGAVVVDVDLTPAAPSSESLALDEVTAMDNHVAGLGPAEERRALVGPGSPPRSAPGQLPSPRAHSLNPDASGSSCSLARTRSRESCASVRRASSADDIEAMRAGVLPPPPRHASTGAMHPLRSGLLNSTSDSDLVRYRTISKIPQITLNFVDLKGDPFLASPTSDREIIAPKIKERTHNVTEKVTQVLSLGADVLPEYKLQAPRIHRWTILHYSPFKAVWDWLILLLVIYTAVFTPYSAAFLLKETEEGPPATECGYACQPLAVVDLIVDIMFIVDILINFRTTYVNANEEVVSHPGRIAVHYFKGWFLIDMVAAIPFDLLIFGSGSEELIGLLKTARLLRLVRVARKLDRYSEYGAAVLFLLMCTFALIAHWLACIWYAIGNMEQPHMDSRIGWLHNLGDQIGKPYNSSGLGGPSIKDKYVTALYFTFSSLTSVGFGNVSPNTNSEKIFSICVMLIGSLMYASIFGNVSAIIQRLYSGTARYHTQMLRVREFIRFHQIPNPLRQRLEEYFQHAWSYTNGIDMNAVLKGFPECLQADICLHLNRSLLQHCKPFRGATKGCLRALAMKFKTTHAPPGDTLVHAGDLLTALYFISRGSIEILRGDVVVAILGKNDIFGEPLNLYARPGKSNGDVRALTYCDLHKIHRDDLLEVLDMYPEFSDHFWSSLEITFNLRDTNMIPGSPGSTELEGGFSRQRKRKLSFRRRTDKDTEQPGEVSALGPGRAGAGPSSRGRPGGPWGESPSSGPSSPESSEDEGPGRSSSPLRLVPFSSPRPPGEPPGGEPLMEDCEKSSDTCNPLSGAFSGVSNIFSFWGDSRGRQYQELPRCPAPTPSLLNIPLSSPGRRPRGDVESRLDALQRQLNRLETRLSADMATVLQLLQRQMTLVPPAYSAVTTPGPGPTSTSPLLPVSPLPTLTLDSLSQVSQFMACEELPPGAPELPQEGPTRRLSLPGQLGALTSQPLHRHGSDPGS
UniProt Q9BV86: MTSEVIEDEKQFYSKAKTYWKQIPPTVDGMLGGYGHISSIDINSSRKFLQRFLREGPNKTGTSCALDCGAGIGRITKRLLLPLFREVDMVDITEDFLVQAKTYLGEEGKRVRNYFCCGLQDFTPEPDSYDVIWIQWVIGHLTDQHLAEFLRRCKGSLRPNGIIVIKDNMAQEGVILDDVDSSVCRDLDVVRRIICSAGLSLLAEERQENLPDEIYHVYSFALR

What was measured:
[1] = qHTS assay to identify small molecules that stimulate interleukin-8 (IL-8) secretion (AID 651758; active = well fitted activation curve with a large enough effect in the signal ratio; inconclusive = small, poorly fitted or top-dose-only effect, or effect the other way, or a change in a side signal; the % refers to the signal ratio; note: 0% is about no effect); conditions: HTRF ratio (665/615); activation: at 92.2 µM (top of the series)
How it was run: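 Quantitative HTS in THP-1 monocytic cells at 2000 cells per well, with 16 hrs compound incubation at 37 C. IL-8 in the medium was then quantified by HTRF immunoassay, read after 1-3 hrs at room temperature.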

[2] = molecular target: Ubiquitin carboxyl-terminal hydrolase 2 (Homo sapiens) (UniProt O75604); test: qHTS Validation Assay for Inhibitors of Ubiquitin-specific Protease USP2a Using CHOP2 as the Reporter (AID 463106); note: potency is the fitted concentration of half-maximal effect
How it was run: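 Inhibition is expressed relative to NEM as the full-inhibition control, with concentration-response curves classed by fit quality, magnitude and activity. Enzyme (USP2 core, 10nM) meets 25nM Ub-CHOP2 after compound preincubation; readings are taken at 60min.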

[3] = molecular target: Metallo-beta-lactamase type 2 (Klebsiella pneumoniae) (UniProt C7C422); test: qHTS to identify inhibitors of the New Delhi Metallo-beta-lactamase (NDM): assay validation screen against the NCATS LOPAC Collection (AID 1794843); note: potency is the fitted concentration of half-maximal effect;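 for activity change, negative = inhibition: nitrocefin turnover by NDM-1 measured as 485 nm absorbance at plateau; % is set by controls: 0 for no effect and ±100 for the full control effect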
How it was run: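 Nitrocefin hydrolysis (50 uM substrate stock) by NDM-1, 2 nM final, was followed by 485 nm absorbance after compound preincubation; buffer was 50 mM HEPES pH 7.0, 1 uM ZnSO4, 0.01% Tween20.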

[4] = molecular target: Rap guanine nucleotide exchange factor 3 (Homo sapiens) (UniProt O95398); test: Confirmatory qHTS for antagonist of cAMP-regulated guanine nucleotide exchange factor 3 (EPAC1) (AID 1645880); note: potency is the fitted concentration of half-maximal effect; nearly all actives have a fitted effect of over 55% in size
How it was run: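 Released BODIPY-GDP fluoresces less than Rap1-bound BODIPY-GDP; the signal is followed at 480/540 nm at 5-min intervals over 30 min, after 5 min at room temperature. Reactions contain 100 nM EPAC1, 250 nM RAP1B-BODIPY-GDP and 50 uM GDP; results are normalized to ATA and DMSO.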

[5] = molecular target: Pyruvate kinase (Leishmania mexicana) (UniProt Q27686); test: qHTS Validation Assay for Inhibitors of Leishmania Mexicana Pyruvate Kinase (AID 945); note: potency is the fitted concentration of half-maximal effect
How it was run: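 Luminescent ATP detection (PKLight) after a 1 h room-temperature reaction of 0.2 nM LmPYK E451W mutant with 0.5 mM PEP and 0.1 mM ADP at pH 7.2. Activity is normalized to DMSO-only control wells.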

[6] = molecular target: Cytochrome P450 3A4 (Homo sapiens) (UniProt P08684); test: qHTS Assay for Inhibitors and Substrates of Cytochrome P450 3A4 (AID 884); conditions: recombinant CYP3A4, Luciferin-PPXE luminescence; activity change, negative = inhibition: at 57.1 µM (top of the series); note: nearly all actives have a fitted effect of over 50% in size; note: potency is the fitted concentration of half-maximal effect; for activity change, negative = inhibition: % is set by controls: 0 for no effect and ±100 for the full control effect
How it was run: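 Luminescent readout of luciferin produced by CYP3A4 (20 nM) dealkylation of Luciferin-PPXE, 25 uM (its KM). NADPH-driven reaction ran 60 min at RT after 10 min compound preincubation; data scaled to 57 uM ketoconazole as 100% inhibition.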

[7] = Counterscreen for APE1 Inhibitors: Fluorescent Dye Displacement Validation Assay (AID 1707); note: potency is the fitted concentration of half-maximal effect;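 for activity change, negative = inhibition: plate controls were ThO with dsDNA and no compound for no effect and ThO without dsDNA for full effect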
How it was run: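 Loss of Thiazole Orange fluorescence marks promiscuous DNA binders. The dye (250 nM) is mixed with 50 nM abasic-site dsDNA in pH7.5 Tris buffer containing MgCl2, then compounds are added and emission is read once.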

[8] = molecular target: Single-stranded DNA cytosine deaminase (Homo sapiens) (UniProt Q9GZX7); test: Validation qHTS assay for inhibitors of Activation Induced Cytidine Deaminase (AID): AID signal (AID 1347429); note: potency is the fitted concentration of half-maximal effect
How it was run: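 Compounds (final up to 114 uM) preincubated with AID plus UDG; 250 nM DJC20/DJC23 substrate mix (4x stock) added, 4 hr at room temperature, then NaOH, 30 min. Read 1 fluorescence at 540 nm excitation, 590 nm emission.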

[9] = molecular target: Cytochrome P450 2C9 (Homo sapiens) (UniProt P11712); test: qHTS Assay for Inhibitors and Substrates of Cytochrome P450 2C9 (AID 883); note: nearly all actives have a fitted effect of over 60% in size; note: potency is the fitted concentration of half-maximal effect; for activity change, negative = inhibition: % is set by controls: 0 for no effect and ±100 for the full control effect
How it was run: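 Human CYP2C9 (10nM) hydroxylated Luciferin-H (100uM, at its KM) to luciferin in 25mM KPO4. Compound was preincubated 10 min at 37C, then NADPH regeneration started a 60 min reaction at 37C. Luminescence was read after detection reagent, normalized to 57uM sulphaphenazole.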

[10] = molecular target: Voltage-gated inwardly rectifying potassium channel KCNH2 (Homo sapiens) (UniProt Q12809); test: qHTS Assay for Small Molecule Inhibitors of the Human hERG Channel Activity (AID 588834);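 note: lower thallium flux fluorescence means stronger hERG block; nearly all actives have a fitted effect of over 50% in size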; note: potency is the fitted concentration of half-maximal effect; for activity change, negative = inhibition: top concentration of the series differs between compounds; % is set by controls: 0 for no effect and ±100 for the full control effect
How it was run: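 In hERG-transduced U2OS cells, dye-loaded for 1 hr at room temperature in dark, test compounds incubated 10 min at 37 °C before thallium stimulation. AC50 values derived by Hill modelling of concentration-response.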

[11] = molecular target: N-terminal Xaa-Pro-Lys N-methyltransferase 1 (Homo sapiens) (UniProt Q9BV86); test: Confirmatory qHTS for Inhibitors of N-terminal methyltransferase 1 (NTMT1): MTaseGlo Assay (AID 1645874); note: potency is the fitted concentration of half-maximal effect; nearly all actives have a fitted effect of over 65% in size
How it was run: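 Room-temperature NTMT1 reaction, 30 min, with 100 uM SAM and 1 uM SPKRIA substrate; enzyme 125 nM. Read-out: MTase-Glo luminescence, normalized to no-enzyme and DMSO controls.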

W2 = test: qHTS profiling for inhibitors of Plasmodium falciparum proliferation (AID 504749);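 note: 0% = DMSO vehicle and full inhibition = artemisinin control; nearly all actives have a fitted effect of over 60% in size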; conditions: P. falciparum in erythrocytes, SYBR Green DNA, 72 h; activity, negative = inhibition: at 28.7 µM (top of the series)
How it was run: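 Quantitative HTS: compounds pinned into medium, infected erythrocytes added (0.3% parasitemia, 2.5% hematocrit), 72 h culture at 37 C under 5% CO2. Saponin/Triton lysis with SYBR Green I, overnight RT, then fluorescence read.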

## CC(C)NCC(O)COc1cccc2ccccc12 (stereo not drawn)
[1]
  activation: inconclusive: -10.1%

## CCCCCCCCCCCCCCCCCCNC(=O)OCC(COP(=O)([O-])OCC[n+]1ccsc1)OC (stereo not drawn)
[2]
  Potency: inconclusive: 14.7 µM [falling, single point]

## Cc1cc(NC2CCCCC2)nc(-n2nc(C)cc2C)n1
[3]
  Potency: inconclusive: 12.6 µM [inhibitor, partial curve, poor fit]

## Oc1cc2c(cc1O)CN(C(=S)NCCc1ccc(Cl)cc1)CCC2
[4]
  Potency: inconclusive: 44.4 µM [inhibitor, partial curve, poor fit]

## NC(N)=NC(=O)c1nc(Cl)c(N2CCCCCC2)nc1N
[5]
  Potency: inconclusive: 20 µM [inhibitor, single point]

## CC(C)NC[C@H](O)COc1cccc2[nH]ccc12
[3]
  Potency: inactive

## C[N+](C)(CCCCCC[N+](C)(C)CCCN1C(=O)c2cccc3cccc(c23)C1=O)CCCN1C(=O)c2cccc3cccc(c23)C1=O
[6]
  Potency: inconclusive: 2.51 µM [inhibitor, partial curve]
[7]
  Potency: active: 5.62 µM
[8]
  Potency: active: 1.41 µM

## COC(=O)c1c(C)[nH]c(C)c1C(=O)c1ccccc1Cc1ccccc1
[9]
  Potency: active: 2.51 µM

## C[C@@H](NC(=O)/C(C#N)=C/c1ccc(O)c(O)c1)c1ccccc1
[9]
  Potency: inactive

## CC(=O)C(C)=O
[6]
  Potency: inactive
[10]
  Potency: inactive
[1]
  Potency: inactive

## Oc1cc2c(c(Cl)c1O)CCNCC2c1ccccc1 (stereo not drawn)
[10]
  Potency: active: 2.82 µM
[11]
  Potency: inconclusive: 30.8 µM [inhibitor, partial curve]

## CCCN(CC1CC1)c1nc(C)nc(Nc2c(Cl)cc(Cl)cc2Cl)c1Cl
[7]
  Potency: inactive

## CC1OC1P(=O)(O)O (stereo not drawn)
W2
  Potency: inactive
